From PMC2204012

The chains behind the UniProt entries cited, without tags or fusion partners. Where a name states a change or a piece, a line headed by the entry shows the natural chain unless it says otherwise.
UniProt O70494: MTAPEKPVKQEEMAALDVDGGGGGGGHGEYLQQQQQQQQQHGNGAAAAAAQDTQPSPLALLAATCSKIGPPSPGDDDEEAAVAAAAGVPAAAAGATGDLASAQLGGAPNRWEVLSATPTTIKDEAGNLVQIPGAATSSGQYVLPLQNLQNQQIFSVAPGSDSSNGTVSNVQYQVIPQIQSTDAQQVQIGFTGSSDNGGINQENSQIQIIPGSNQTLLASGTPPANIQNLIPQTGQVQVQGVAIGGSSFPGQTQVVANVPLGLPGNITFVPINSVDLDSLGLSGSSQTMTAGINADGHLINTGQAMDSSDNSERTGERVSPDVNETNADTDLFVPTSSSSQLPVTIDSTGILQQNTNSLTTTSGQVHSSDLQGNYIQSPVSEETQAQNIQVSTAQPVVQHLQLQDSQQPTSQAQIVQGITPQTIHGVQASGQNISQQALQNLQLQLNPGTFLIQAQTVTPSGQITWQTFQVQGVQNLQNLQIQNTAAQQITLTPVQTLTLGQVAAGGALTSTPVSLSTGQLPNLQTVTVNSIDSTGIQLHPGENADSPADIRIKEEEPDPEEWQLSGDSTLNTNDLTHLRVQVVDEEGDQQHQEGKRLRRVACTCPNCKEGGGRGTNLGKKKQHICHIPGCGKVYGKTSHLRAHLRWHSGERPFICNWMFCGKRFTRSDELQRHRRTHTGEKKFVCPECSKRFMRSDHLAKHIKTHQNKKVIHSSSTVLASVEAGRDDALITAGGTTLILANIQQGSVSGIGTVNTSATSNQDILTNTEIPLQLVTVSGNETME
UniProt O89090, whole entry: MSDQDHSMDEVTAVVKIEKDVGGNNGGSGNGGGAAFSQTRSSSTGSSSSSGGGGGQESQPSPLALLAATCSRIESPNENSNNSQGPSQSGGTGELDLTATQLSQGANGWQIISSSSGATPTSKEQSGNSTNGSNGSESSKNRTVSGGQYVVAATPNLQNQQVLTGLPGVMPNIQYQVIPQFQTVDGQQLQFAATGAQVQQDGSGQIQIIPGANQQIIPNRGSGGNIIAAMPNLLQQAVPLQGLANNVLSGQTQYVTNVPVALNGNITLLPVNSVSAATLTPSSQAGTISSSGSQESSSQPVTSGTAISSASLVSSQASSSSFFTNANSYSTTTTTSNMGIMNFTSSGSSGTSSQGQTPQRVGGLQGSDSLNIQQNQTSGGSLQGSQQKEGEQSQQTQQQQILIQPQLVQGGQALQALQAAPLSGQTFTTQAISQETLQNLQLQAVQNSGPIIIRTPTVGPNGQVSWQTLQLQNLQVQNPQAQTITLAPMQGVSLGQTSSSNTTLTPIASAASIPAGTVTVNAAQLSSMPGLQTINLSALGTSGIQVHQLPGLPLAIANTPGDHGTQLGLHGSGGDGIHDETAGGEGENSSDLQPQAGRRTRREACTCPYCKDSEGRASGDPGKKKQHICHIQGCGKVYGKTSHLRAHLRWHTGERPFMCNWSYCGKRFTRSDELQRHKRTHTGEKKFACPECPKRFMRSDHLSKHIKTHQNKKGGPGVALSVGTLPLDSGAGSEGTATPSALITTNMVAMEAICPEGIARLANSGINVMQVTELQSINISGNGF
UniProt Q60843: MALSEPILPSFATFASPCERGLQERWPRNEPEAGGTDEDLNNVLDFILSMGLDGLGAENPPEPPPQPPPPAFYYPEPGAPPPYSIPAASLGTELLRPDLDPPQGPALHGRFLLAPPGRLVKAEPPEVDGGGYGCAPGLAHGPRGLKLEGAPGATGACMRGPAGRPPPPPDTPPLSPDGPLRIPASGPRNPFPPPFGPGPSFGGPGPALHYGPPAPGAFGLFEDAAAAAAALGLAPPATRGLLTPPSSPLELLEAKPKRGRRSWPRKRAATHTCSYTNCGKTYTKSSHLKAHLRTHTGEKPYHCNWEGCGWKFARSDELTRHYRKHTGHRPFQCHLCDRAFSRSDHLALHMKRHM

Columns and labels:
KLF4 (recombinant) = experiment: EMSA; settings: recombinant protein, data not shown, EMSA as previously described (ref 61), pH and temperature not stated
SP3 = SP3 (UniProt O70494); experiment: EMSA supershift; settings: ES cell nuclear extract; EMSA as previously described (ref 61); pH and temperature not stated; protein in an extract
SP1 = SP1 (UniProt O89090); experiment: EMSA supershift; settings: EMSA as previously described (ref 61), pH and temperature not stated, protein in an extract
KLF2 = KLF2 (UniProt Q60843); experiment: EMSA with antibody inhibition; settings: ES cell nuclear extract, activity lost in EB extract; EMSA as previously described (ref 61); pH and temperature not stated; protein in an extract

Measured: binding result

GTTGGGCGGGGCGTGGGCGGGGCC (double strand) [p18INK4c promoter extended CACC site]
binds: KLF4 (recombinant) | SP3 | SP1; ES cell nuclear extract | SP1; day 4 EB (serum) nuclear extract | KLF2

For at least one entry, the source does not settle the construct or the ends of the probe. For some assays here: At least one result comes from cells or an extract, where the contact may be indirect. For some assays here: At least one verdict rests on a figure or table, not on a statement of the authors.
